Ends that are not written are not given here.
Experiment: NMR secondary Cα chemical shifts / helicity of unbound peptides
Type: physicochemical
Conditions: unbound peptide, pH 6.3, 25 °C; for < Δδ > C^α, NMR: average secondary Cα chemical shift over the motif; for %helicity, NMR: using 100% helicity as < Δδ > C^α of 3.2 ppm

Row | Substance | < Δδ > C^α, NMR [ppm] | %helicity, NMR [%]
1 | Ac-MDRWLVKW-NH2 [APIM] | 0.20 | 6.3
2 | Ac-RQSTLYSFFPKSPAL-NH2 [MSH6] | – | 0
3 | Ac-TQGRLDDFFKVTGSL-NH2 [FEN1] | 0.12 | 3.8
4 | MIGQKTLYSFFTPSP [UNG2] | 0.03 | 1

From PMC6881253, “The PCNA interaction motifs revisited: thinking outside the PIP-box” (Cellular and Molecular Life Sciences: CMLS, 2019)
